No constants are given. Whether binding was seen depends on the method and setting. In cells and extracts the contact can be indirect. Some entries that bind do so weakly or less than the wild type.
target: TFEB-Flag (human) (UniProt P19484); test: co-IP; HEK293 cells with TFEB-Flag (stably expressed, Fig. S3 D; cotransfected, Fig. 4 C) and an HA-tagged partner; TFEB-Flag precipitated with anti-Flag, blotted with anti-HA; NP-40 lysis buffer, 4°C

By UniProt entry, the sequences of proteins in these tests, tags left out.
UniProt P19484: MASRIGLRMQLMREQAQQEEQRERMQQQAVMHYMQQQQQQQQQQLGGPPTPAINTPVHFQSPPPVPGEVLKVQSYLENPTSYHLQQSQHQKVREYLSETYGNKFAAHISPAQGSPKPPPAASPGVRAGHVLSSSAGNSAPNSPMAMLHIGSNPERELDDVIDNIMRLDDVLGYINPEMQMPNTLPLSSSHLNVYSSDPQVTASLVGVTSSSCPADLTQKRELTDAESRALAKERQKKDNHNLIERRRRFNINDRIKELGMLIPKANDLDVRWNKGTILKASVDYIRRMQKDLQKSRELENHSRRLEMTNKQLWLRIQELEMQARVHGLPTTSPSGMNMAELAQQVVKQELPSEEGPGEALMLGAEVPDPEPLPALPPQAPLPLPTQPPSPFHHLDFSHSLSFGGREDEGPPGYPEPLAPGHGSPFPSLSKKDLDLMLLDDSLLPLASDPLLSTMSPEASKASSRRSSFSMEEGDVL
UniProt Q9Y508: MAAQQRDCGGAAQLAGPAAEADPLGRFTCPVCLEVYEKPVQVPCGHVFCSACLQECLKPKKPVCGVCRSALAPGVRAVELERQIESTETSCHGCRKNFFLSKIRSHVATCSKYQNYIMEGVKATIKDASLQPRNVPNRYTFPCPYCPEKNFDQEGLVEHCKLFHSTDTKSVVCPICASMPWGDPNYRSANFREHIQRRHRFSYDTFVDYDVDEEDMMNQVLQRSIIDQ
UniProt Q13619: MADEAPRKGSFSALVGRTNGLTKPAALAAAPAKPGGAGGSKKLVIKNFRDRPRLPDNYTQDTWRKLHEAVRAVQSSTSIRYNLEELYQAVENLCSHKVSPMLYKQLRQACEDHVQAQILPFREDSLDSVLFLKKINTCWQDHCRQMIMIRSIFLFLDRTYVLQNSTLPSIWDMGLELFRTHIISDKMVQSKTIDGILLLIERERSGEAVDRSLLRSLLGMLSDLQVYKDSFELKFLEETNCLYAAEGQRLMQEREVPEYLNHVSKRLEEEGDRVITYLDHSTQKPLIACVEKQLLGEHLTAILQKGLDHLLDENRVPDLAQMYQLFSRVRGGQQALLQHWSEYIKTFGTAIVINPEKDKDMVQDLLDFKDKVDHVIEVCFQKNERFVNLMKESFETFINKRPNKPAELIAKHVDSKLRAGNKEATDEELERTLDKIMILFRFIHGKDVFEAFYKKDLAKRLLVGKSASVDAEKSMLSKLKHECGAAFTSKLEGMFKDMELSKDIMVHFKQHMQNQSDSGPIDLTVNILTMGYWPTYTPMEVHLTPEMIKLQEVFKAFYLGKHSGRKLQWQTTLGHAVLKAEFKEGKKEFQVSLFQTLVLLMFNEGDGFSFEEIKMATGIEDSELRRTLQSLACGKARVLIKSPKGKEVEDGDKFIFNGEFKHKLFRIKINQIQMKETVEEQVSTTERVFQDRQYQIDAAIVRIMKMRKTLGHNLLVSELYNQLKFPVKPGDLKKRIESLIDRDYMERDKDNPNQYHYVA
UniProt Q13620: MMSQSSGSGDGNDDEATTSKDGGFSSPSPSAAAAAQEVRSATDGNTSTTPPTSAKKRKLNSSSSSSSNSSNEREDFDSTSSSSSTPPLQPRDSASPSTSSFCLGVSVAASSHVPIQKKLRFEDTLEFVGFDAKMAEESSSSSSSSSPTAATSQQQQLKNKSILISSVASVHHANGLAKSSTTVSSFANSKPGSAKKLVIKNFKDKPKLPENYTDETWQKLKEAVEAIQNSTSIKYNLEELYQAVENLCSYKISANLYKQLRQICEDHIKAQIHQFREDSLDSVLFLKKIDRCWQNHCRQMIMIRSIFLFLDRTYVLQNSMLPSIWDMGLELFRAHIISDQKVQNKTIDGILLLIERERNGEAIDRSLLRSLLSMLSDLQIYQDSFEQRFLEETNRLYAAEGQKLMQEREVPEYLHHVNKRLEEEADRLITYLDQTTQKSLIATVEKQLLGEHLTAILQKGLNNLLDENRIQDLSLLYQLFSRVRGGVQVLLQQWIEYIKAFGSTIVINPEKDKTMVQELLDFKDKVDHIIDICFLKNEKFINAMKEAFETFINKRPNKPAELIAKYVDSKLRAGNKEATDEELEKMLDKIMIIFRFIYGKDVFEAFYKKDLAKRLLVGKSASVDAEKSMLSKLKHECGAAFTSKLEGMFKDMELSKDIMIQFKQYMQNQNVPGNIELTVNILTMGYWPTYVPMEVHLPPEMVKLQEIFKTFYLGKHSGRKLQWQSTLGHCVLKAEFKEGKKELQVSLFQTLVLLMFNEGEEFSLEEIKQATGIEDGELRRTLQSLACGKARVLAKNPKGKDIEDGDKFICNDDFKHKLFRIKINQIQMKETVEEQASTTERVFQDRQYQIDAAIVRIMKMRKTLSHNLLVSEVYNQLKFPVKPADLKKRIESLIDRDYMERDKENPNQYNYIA
UniProt Q9UNE7: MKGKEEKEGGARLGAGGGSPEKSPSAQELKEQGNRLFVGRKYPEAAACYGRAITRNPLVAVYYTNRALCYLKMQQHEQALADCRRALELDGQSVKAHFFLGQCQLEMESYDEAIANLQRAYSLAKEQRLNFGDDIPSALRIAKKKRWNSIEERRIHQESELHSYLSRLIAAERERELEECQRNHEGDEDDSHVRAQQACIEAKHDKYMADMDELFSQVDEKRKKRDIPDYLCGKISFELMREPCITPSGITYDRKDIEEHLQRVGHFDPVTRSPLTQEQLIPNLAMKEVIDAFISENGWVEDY

binding	Substance
binds	HA-RNF114 (from UniProt Q9Y508 1-228)
binds	HA-tagged Cullin4A (from UniProt Q13619 1-759)
no binding	HA-tagged Cullin4B (from UniProt Q13620 1-913)
binds	HA-tagged STUB1 (from UniProt Q9UNE7 1-303)
